Laboratory results: PubChem BioAssay AID1259405 (NCATS, 2018)

Test: 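Mouse-designed siRNAs used to find CHO productivity engineering targets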 (primary screen)
Cells: Chinese hamster CHO-K1 ovary cells with stable secreted eGFP expression
Reagent: single siRNA against mouse genes, 0.8 pmol siRNA per well (2 µl of 400 nM stock)
Timing: 3 days
Detection: 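Percent of the per-plate non-targeting control median for intracellular GFP per well by laser scanning cytometry and for cell viability by ATP luminescence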
Direction: GFP, % of control: higher = more GFP per well, higher productivity; viability (ATP), % of control: higher = more viable cells (more ATP)
Hit rule: 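a knock-down is called active if GFP reaches 120% or more of non-targeting control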
Shown is a random part of about 50,000 reagents. Over the whole deposit, about 4,000 (8%) got an active call. 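Mouse siRNA library applied to hamster cells; one well for each siRNA.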 The numbers tell different reagents against one gene apart. Reagent sequences are not shown.

no.	target	reagent no.	GFP, % of control	viability (ATP), % of control	call
1	Tmem260	1	75.2	51.6	inactive
2	Tmem260	2	58.7	71.2	inactive
3	Tmem260	3	99.3	95.2	inactive
4	Lao1	1	87	53.9	inactive
5	Lao1	2	77.8	74.7	inactive
6	Lao1	3	53.2	81.7	inactive
7	H2ac6	1	115	64.6	inactive
8	H2ac6	2	91.7	90	inactive
9	H2ac6	3	85.3	108	inactive
10	Gnpda1	1	95.6	94.3	inactive
11	Gnpda1	2	108	74	inactive
12	Gnpda1	3	18.7	103	inactive
13	Nr1h5	1	107	107	inactive
14	Nr1h5	2	118	57.7	inactive
15	Nr1h5	3	88.9	88.6	inactive
16	Fcer1g	1	92.9	77.1	inactive
17	Fcer1g	2	53.1	40	inactive
18	Fcer1g	3	69.4	67.5	inactive
19	Vdac2	1	67	105	inactive
20	Vdac2	2	106	78.7	inactive
21	Vdac2	3	90.8	77.7	inactive
22	Tmem231	1	72.4	79.5	inactive
23	Tmem231	2	21	9.04	inactive
24	Tmem231	3	120	119	active
25	Ggn	1	63.4	72.6	inactive
26	Ggn	2	134	68.9	active
27	Ggn	3	70.5	74.8	inactive
28	Enox1	1	76.3	82.1	inactive
29	Enox1	2	71.2	64.9	inactive
30	Enox1	3	97.9	77.7	inactive
31	Agxt2	1	93.9	95.1	inactive
32	Agxt2	2	57.2	122	inactive
33	Agxt2	3	109	97.6	inactive
34	Pld4	1	81.4	83.3	inactive
35	Pld4	2	93.9	89.7	inactive
36	Pld4	3	75.3	66.7	inactive
37	Or2n1	1	80.7	72	inactive
38	Or2n1	2	33	25.3	inactive
39	Or2n1	3	50	89.1	inactive
40	Sp9	1	64.4	64.1	inactive
41	Sp9	2	50	73.9	inactive
42	Sp9	3	68.4	38.4	inactive
43	Cdc25a	1	88.7	64.9	inactive
44	Cdc25a	2	100	107	inactive
45	Cdc25a	3	75.6	91.9	inactive
46	A530095I07Rik	1	62.9	44	inactive
47	A530095I07Rik	2	81.9	86.5	inactive
48	A530095I07Rik	3	80.4	98.8	inactive
49	Serpinb9c	1	99.6	92.9	inactive
50	Serpinb9c	2	65.9	72.7	inactive
51	Serpinb9c	3	98.9	120	inactive
52	Bco1	1	49.2	62.8	inactive
53	Bco1	2	69.6	67.9	inactive
54	Bco1	3	63.7	62.2	inactive
55	Hsd17b14	1	61.2	56.7	inactive
56	Hsd17b14	2	54.3	58.2	inactive
57	Hsd17b14	3	52.3	53.2	inactive
58	Fbln5	1	104	124	inactive
59	Fbln5	2	97.3	89.2	inactive
60	Or2ag1	1	93.9	48.7	inactive
61	Or2ag1	2	80.8	64.3	inactive
62	Or2ag1	3	66.8	46	inactive
63	Cers4	1	42.8	59.8	inactive
64	Cers4	2	76.1	25.3	inactive
65	Cers4	3	123	85.8	active
66	Uri1	1	95.8	73	inactive
67	Uri1	2	64.2	69.7	inactive
68	Uri1	3	104	95.9	inactive
69	Epdr1	1	119	75	inactive
70	Epdr1	2	73.8	64.8	inactive
71	Epdr1	3	79.9	104	inactive
72	Epdr1	4	81	86.6	inactive
73	Epdr1	5	78.5	103	inactive
74	Cmc2	1	81.7	98	inactive
75	Cmc2	2	101	66.6	inactive
76	Cmc2	3	50.2	58.1	inactive
77	Eif4a1	1	69.6	63.1	inactive
78	Eif4a1	2	46.4	62.6	inactive
79	Eif4a1	3	62	65	inactive
80	Sohlh2	1	79.5	92.2	inactive
81	Sohlh2	2	63.2	88.8	inactive
82	Sohlh2	3	102	109	inactive
83	Rap1gap2	1	108	96.9	inactive
84	Rap1gap2	2	62.5	93.7	inactive
85	Rap1gap2	3	68	67	inactive

In a second layout: entries from further up
target | reagent no. | GFP, % of control | viability (ATP), % of control | call
Sp9 | 3 | 68.4 | 38.4 | inactive
Cdc25a | 1 | 88.7 | 64.9 | inactive
Cdc25a | 2 | 100 | 107 | inactive
Cdc25a | 3 | 75.6 | 91.9 | inactive
A530095I07Rik | 1 | 62.9 | 44 | inactive
A530095I07Rik | 2 | 81.9 | 86.5 | inactive
A530095I07Rik | 3 | 80.4 | 98.8 | inactive
Serpinb9c | 1 | 99.6 | 92.9 | inactive
Serpinb9c | 2 | 65.9 | 72.7 | inactive
Serpinb9c | 3 | 98.9 | 120 | inactive
